One experiment concerns the target Flag-tagged SIRT7 (UniProt Q9NRC8). The experiment is described as follows: co-IP; HEK293T cells transfected with Flag-SIRT7 (Flag-Luc as control); CHAPS lysis buffer (120 mmol/L NaCl, 0.3% CHAPS, 1 mmol/L EDTA, 40 mmol/L HEPES, pH 7.5), 4 °C; partners detected by Western blot. On the technique in general: A western blot detects proteins with antibodies after separation by electrophoresis.

Sequences of proteins named here, by UniProt entry; tags and fusion partners are left off.
UniProt Q9NRC8: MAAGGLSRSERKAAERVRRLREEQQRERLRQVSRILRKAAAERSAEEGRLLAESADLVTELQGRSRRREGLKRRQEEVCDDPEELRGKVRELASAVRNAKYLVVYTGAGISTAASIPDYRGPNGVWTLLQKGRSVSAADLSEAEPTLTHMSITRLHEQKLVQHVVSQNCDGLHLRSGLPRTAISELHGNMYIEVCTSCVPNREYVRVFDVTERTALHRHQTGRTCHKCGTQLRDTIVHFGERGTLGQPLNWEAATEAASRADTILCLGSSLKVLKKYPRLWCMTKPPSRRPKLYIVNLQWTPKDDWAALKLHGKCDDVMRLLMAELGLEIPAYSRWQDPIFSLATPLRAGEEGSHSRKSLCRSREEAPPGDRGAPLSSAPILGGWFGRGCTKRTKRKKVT
UniProt Q13185: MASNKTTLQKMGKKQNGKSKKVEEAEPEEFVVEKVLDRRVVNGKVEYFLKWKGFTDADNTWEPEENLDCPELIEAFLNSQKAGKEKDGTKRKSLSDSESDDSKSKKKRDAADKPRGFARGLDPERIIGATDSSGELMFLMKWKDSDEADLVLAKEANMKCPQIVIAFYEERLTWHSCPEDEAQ
UniProt P20700: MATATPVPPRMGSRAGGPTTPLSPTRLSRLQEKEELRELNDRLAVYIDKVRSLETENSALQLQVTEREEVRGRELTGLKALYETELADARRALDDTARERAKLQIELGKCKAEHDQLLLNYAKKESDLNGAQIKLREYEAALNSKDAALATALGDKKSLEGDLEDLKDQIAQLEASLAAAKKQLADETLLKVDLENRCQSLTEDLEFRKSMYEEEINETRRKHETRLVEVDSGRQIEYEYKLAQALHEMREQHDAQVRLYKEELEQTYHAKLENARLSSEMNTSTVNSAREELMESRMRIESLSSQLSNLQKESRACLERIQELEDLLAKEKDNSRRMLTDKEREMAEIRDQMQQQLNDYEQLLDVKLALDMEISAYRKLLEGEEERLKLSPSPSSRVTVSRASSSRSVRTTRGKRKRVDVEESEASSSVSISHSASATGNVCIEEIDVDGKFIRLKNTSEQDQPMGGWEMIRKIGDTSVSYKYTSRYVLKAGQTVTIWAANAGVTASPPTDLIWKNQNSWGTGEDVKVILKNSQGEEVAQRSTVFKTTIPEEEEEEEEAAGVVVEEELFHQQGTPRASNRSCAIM
UniProt P45973: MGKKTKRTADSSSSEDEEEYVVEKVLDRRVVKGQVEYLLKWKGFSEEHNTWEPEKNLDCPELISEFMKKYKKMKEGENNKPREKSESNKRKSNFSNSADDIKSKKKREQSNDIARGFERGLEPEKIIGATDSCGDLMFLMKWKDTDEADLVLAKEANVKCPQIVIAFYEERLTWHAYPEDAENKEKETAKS
UniProt Q13263: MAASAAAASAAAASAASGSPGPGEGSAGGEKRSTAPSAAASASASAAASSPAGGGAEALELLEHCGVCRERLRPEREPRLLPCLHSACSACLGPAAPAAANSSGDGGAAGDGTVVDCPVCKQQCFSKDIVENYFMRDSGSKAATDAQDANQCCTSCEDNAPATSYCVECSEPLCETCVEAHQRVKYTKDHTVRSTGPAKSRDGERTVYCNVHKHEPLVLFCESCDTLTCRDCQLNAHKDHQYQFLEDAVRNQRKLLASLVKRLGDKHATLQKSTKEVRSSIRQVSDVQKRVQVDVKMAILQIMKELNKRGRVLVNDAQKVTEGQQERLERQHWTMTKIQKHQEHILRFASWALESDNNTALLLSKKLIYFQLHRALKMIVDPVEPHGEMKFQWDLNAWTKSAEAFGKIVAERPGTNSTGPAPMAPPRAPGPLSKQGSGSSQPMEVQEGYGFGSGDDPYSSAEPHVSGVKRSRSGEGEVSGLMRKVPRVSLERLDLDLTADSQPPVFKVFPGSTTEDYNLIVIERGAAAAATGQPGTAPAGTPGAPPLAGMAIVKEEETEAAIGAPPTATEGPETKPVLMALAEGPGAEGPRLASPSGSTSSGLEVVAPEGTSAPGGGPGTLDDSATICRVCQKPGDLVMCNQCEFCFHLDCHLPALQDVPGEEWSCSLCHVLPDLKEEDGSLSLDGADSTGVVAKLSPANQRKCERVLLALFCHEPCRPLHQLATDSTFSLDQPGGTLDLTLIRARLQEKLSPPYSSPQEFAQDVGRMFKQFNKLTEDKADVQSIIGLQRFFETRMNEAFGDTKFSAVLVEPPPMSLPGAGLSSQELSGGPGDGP
UniProt Q14739: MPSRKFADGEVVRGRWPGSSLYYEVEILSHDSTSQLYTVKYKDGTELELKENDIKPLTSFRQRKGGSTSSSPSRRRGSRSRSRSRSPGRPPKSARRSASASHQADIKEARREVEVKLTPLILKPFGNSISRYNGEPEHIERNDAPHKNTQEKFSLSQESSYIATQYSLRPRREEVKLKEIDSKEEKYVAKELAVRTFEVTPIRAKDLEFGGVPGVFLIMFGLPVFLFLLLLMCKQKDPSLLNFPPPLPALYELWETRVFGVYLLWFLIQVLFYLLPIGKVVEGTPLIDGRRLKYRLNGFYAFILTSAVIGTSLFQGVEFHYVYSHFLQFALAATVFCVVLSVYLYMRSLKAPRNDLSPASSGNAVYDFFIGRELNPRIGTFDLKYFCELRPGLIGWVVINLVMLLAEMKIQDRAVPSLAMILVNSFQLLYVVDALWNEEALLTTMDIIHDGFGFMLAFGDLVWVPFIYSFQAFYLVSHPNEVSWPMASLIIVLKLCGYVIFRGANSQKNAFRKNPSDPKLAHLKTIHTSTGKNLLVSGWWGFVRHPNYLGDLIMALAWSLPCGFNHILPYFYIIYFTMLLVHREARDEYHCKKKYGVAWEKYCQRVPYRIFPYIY

Experiment [1] concerns the target endogenous SIRT7 protein (human (endogenous in hMSCs)) (UniProt Q9NRC8). The experiment is described as follows: co-IP; endogenous SIRT7 immunoprecipitated from WT hMSC lysate (1 mg protein, CHAPS lysis buffer, pre-cleared with Protein A/G-PLUS Agarose beads, antibody and beads overnight at 4 °C); partners detected by Western blot.

No constants are given. Whether binding was seen depends on the method and setting. Binding seen in cells or lysates may run through a third protein. Some results given as binding are weak or reduced against the parent protein; the word gives no strength.

As for HP1γ (from UniProt Q13185 1-183), the binding entry (with Flag-tagged SIRT7; in experiment [1]) was “binds” throughout.

Consider Lamin B1 (from UniProt P20700 1-586), for which the binding result (with Flag-tagged SIRT7; in experiment [1]) was “binds” in each case.

“heterochromatin protein 1 α (HP1α) (from UniProt P45973 1-191)”: the binding result (in the experiment with Flag-tagged SIRT7; in experiment [1]) was “binds” in each case.

On to “heterochromatin protein KAP1 (from UniProt Q13263 1-835)”, for which the binding result (with Flag-tagged SIRT7; in experiment [1]) was “binds” in each case.

As to “nuclear lamina protein LBR (from UniProt Q14739 1-615)”, the binding entry (in the experiment with Flag-tagged SIRT7; in experiment [1]) was “binds” throughout.

Values taken from paper PMC7305295.
